Where a name gives a salt, the structure may show the parent alone.
Each molecule was assayed on 5-HT1 (assay: Radioligand binding, tritiated 5-HT, rat frontal cortex homogenate (total 5-HT1)). Conditions: Hill plot of tritiated 5-HT displacement.
Protocol: Male Sprague-Dawley rats (150-200 g) were sacrificed and the brains were rapidly removed and placed on ice. The frontal cortext, including the portion immediately above the striatum and part of the parietal cortex were dissected. Tissues from 6-10 rats were pooled and homogenized in at least 40 volumes of tris-HCI buffer (0.05 M, pH 7.4) using a Brinkman Polytron (setting 5 for 20 seconds). This homogenate was centrifuged (48,000 G for 10 minutes), the pellet resuspended, and the process repeated three more times. Between the second and third washes, the tissue homogenate was incubated for 10 minutes at 37°C. The final pellet was resuspended in 100 volumes of TRIS buffer for use in the binding assay.
Radioligand binding affinity for subtypes of the serotonin receptor was determined by the method of Pedigo, Yamamura, and Nelson, op. cit. Tissue homogenate (0.5 mL) from rat frontal cortex, together with various concentrations of tritiated 5-HT and test compounds were added to glass tubes containing modified tris-HCI buffer to obtain, in each case, a final volume of 2 mL and having the following compositions: 5.7 mM ascorbate, 10 micromolar pargyline, 4mM CaCl2, 50 mM TRIS buffer; pH 7.4 at 37°C.
Each mixture was incubated for 15 minutes at 37°C and then vacuum filtered through Whatman GF/B filters followed by three 5 mL washes with cold TRIS buffer. Radioactivity was extracted overnight in 3 mL of scintillation liquid and measured by liquid scintillation spectrometry (50% efficiency).
Binding parameters for saturation and drug displacement studies were calculated by Scatchard analysis and from Hill plots, respectively.

Molecule	Hill Slope
COc1cccc2c1[C@H]1CCN(CCCCN3C(=O)c4ccccc4S3(=O)=O)C[C@@H]1C2 (relative stereo) [Example 57, trans-2(4-(2-(1,2-benzisothiazolin-3-one-1,1-dioxyde))butyl)-5-methoxy-2,3,4,4a,9,9a-hexahydro-1H-indeno[2,1-c]pyridine hydrochloride]	0.618
COc1cccc2c1[C@H]1CCN(CCCN3C(=O)CC4(CCCC4)CC3=O)C[C@@H]1C2 (relative stereo) [Example 50, trans-2-(3-(3,3-tetramethylene)glutarimidyl)propyl-5-methoxy-2,3,4,4a,9,9a-hexahydro-1 H-indeno [2,1-c]pyridine hydrochloride]	0.45
COc1cccc2c1C1CN(C/C=C/CN3C(=O)CC4(CCCC4)CC3=O)CC1C2 (stereo not drawn) [Example 30, 2-(4-(3,3-tetramethylene)glutarimidyl)-trans-but-2-enyl-4-methoxy-1,2,3,3a,8,8a-hexahydroindeno [1,2-c]pyrrole hydrochloride]	0.37
COc1cccc2c1C1CCN(CCCN3C(=O)CC4(CCCC4)CC3=O)CC1C2 (stereo not drawn) [Example 43, cis-2-(3-(3,3-tetramethylene)glutarimidyl)propyl-5-methoxy-2,3,4,4a,9,9a-hexahydro-1H-indeno[2,1-c] pyridine hydrochloride]	0.39
COc1cccc2c1C1CN(CCCCCN3C(=O)CC4(CCCC4)CC3=O)CC1C2 (stereo not shown) [Example 28, 2-(5-(3,3-tetramethylene)glutarimidyl)pentyl-4-methoxy-1,2,3,3a,8,8a-hexahydroindeno[1,2-c]pyrrole hydrochloride]	0.62
COc1cccc2c1[C@H]1CCN(CCCN3C(=O)c4ccccc4S3(=O)=O)C[C@@H]1C2 (relative stereo) [Example 56, trans-2(3-(2-(1,2-benzisothiazolin-3-one-1,1-dioxyde))propyl)-5-methoxy-2,3,4,4a,9,9a-hexahydro-1 H-indeno[2,1-c]pyridine hydrochloride]	0.369
O=C1CC2(CCCC2)CC(=O)N1CCCN1CC2Cc3cccc(O)c3C2C1 (stereo not shown) [Example 27, 2-(3-(3,3-tetramethylene)glutarimidyl)propyl-4-hydroxy-1,2,3,3a,8,8a-hexahydroindeno[1,2-c]pyrrole hydrobromide]	0.38
Br.O=C(NCCN1CC2Cc3cccc(O)c3C2C1)c1ccc(F)cc1 (stereo not shown) [Example 19, 4-Hydroxy-2-(2-(4-fluorobenzamido)ethyl)-1,2,3,3a,8,8a-hexahydroindeno[1,2-c]pyrrole hydrobromide]	0.33
COc1cccc2c1C1CCN(CCCCN3C(=O)CC4(CCCC4)CC3=O)CC1C2 (stereo not shown) [Example 44, hydrochloride]	0.46
COc1cccc2c1C1CN(CCCN3C(=O)CC4(CCCC4)CC3=O)CC1C2 (stereo not shown) [Example 26, 2-(3-(3,3-tetramethylene)glutarimidyl)propyl-4-methoxy-1,2,3,3a,8,8a-hexahydroindeno[1,2-c]pyrrole hydrochloride]	0.56
COc1cccc2c1C1CN(CCCCN3C(=O)CC4(CCCC4)CC3=O)CC1C2 (stereo not shown) [Example 7, 2-(4-(3,3-tetramethylene)glutarimidyl)butyl-4-methoxy-1,2,3,3a,8,8a-hexahydoindeno[1,2-c]pyrrole hydrochloride]	0.265
COc1cccc2c1[C@H]1CCN(CCCCN3C(=O)CC4(CCCC4)CC3=O)C[C@@H]1C2 (relative stereo) [Example 51, trans-2-(4-(3,3-tetramethylene)glutarimidyl)butyl-5-methoxy-2,3,4,4a,9,9a-hexahydro-1H-indeno [2,1-c] pyridine hydrochloride]	0.26
O=C1c2ccccc2S(=O)(=O)N1CCCCN1CC2Cc3cccc(O)c3C2C1 (stereo not shown) [Example 22, 4-Hydroxy-2-(4-(2-(1.2-benzisothiazolin-3-one-1,1-dioxide))butyl)-1,2,3,3a,8,8a-hexahydroindeno-[1,2-c]pyrrole hydrochloride]	0.463
COc1cccc2c1C1CN(CCCCN3C(=O)C4C5C=CC(C6C=CC65)C4C3=O)CC1C2 (stereo not shown) [Example 54, 4-Methoxy-2-(4-(3a,4,4a,6a,7,7a-hexahydro-4,7-etheno-1H-cyclobut[flisoindol-1,3-dionyl)-butyl)-1,2,3,3a,8,8a-hexahydroindeno-[1,2-c]pyrrole hydrochloride]	0.33
O=C1CC2(CCCC2)CC(=O)N1CCCCN1CC2Cc3cccc(O)c3C2C1 (stereo not shown) [Example 20, 2-(4-(3,3-tetramethylene)glutarimidyl)butyl-4-hydroxy-1,2,3,3a,8,8a-hexahydroindeno[1,2-c]pyrrole hydrobromide]	0.448
COc1cccc2c1C1CN(CCCCN3C(=O)CC(C)(C)CC3=O)CC1C2 (stereo not shown) [Example 23, 2-(4-(3,3-dimethyl)glutarimidyl)butyl-4-methoxy-1,2,3,3a,8,8a-hexahydroindeno-[1,2-c]pyrrole hydrochloride]	0.455
COc1cccc2c1C1CCN(CCNC(=O)c3ccc(F)cc3)CC1C2 (stereo not drawn) [Example 58, trans-2-(2-(4-fluorobenzamido)ethyl)-5-methoxy-2,3,4,4a,9.9a-hexahydro-1H-indeno[2,1-c]pyridine hydrochloride]	0.394
COc1cccc2c1C1CN(C/C=C\CN3C(=O)CC4(CCCC4)CC3=O)CC1C2 (stereo not drawn) [Example 29, 2-(4-(3,3-tetramethylene)glutarimidyl)-cis-but-2-enyl-4-methoxy-1,2,3,3a,8,8a-hexahydroindeno [1,2-c] pyrrole hydrochloride]	0.62
COc1cccc2c1C1CN(CCCCN3C(=O)c4ccccc4S3(=O)=O)CC1C2 (stereo not shown) [Example 21, 4-Methoxy-2-(4-(2-(1,2-benzisothiazolin-3-one1,1-dioxide))butyl)1,2,3,3a,8,8a-hexahydroindeno-[1,2-c]pyrrole hydrochloride]	0.546
COc1cccc2c1C1CN(C[C@H]3COc4ccccc4O3)CC1C2 (stereo partly drawn) [Example 31, 2S-(1,4-benzodioxanyl-2-methyl)-4-methoxy-1,2,3,3a,8,8a-hexahydroindeno[1,2-c]pyrrole hydrochloride]	0.445
COc1cccc2c1C1CN(CCCCN3C(=O)c4ccccc4C3=O)CC1C2 (stereo not shown) [Example 24, 4-Methoxy-2-(4-(2-phthalimido)butyl)-1,2,3,3a,8,8a-hexahydroindeno[1,2-c]pyrrole hydrochloride]	0.563
O=C1CC2(CCCC2)CC(=O)N1CCCCN1CC2Cc3ccc(Cl)c(O)c3C2C1 (stereo not shown) [Example 52, 2-(4-(3,3-Tetramethylene)glutarimidyl)butyl-5-chloro-4-hydroxy-1,2,3,3a,8,8a-hexahydroindeno[1,2-c]-pyrrole hydrobromide]	0.34
4-Methoxy-2-(4-(3aα,4a,5,6,7aα-hexahydro-4,7-methano-1H-isoindol-1,3(2H)-dionyl)-butyl)-1,2,3,3a, 8,8a-hexahydroindeno[1,2-c]pyrrole hydrochloride [Example 55]	0.35
COc1c(Cl)ccc2c1C1CN(CCCCN3C(=O)CC4(CCCC4)CC3=O)CC1C2 (stereo not shown) [Example 8, 2-(4-(3,3-tetramethylene)glutarimidyl)butyl-5-chroro-4-methoxy-1,2,3,3a,8,8a-hexahydroindeno[1,2-c] pyrrole hydrochloride]	0.41
COc1cccc2c1C1CN(C[C@@H]3COc4ccccc4O3)CC1C2 (stereo partly drawn) [Example 32, 2R-(1,4-benzodioxanyl-2-methyl)-4-methoxy-1,2,3,3a,8,8a-hexahydroindeno[1,2-c]pyrrole hydrochloride]	0.539
